Measurements published in the supplement of paper PMC7830784.
Structures can show the parent of a compound that is named as a salt. The list shows a part of the results. Repeats in this data set agree poorly, so a single value says little.

System: Brugia pahangi adult female
Test: motility inhibition on day 3 relative to DMSO vehicle; higher = more active
Settings: 10 µM; 3 days

Structure (SMILES)	motility inhibition on day 3 [%]
O=C(O)[C@H](CC(=O)N1C[C@H]2CCCC[C@H]2C1)Cc1ccccc1 [Mitiglinide calcium]	25.9
O=C(O)c1cc(/N=N/c2ccc(S(=O)(=O)Nc3ccccn3)cc2)ccc1O [sulfasalazine]	< 0
CN/C(=N\CCSCc1nc[nH]c1C)NC#N [Cimetidine]	2.05
C/C(=C\C(=O)OCCCCCCCCC(=O)O)C[C@@H]1OC[C@H](C[C@@H]2O[C@H]2[C@@H](C)[C@H](C)O)[C@@H](O)[C@H]1O [mupirocin]	19.5
C[C@@H](O[C@H]1OCCN(Cc2n[nH]c(=O)[nH]2)[C@H]1c1ccc(F)cc1)c1cc(C(F)(F)F)cc(C(F)(F)F)c1 [Aprepitant]	5.35
Oc1cccc(O)c1 [resorcinol]	< 0
CC(=O)N(c1onc(C)c1C)S(=O)(=O)c1ccc(N)cc1 [sulfisoxazole acetyl]	7.89
Cc1cc(O)cc(C)c1Cl [chloroxylenol]	4.07
Cc1cn(-c2cc(NC(=O)c3ccc(C)c(Nc4nccc(-c5cccnc5)n4)c3)cc(C(F)(F)F)c2)cn1 [nilotinib]	6.86
CC(N)CCCC(C)(C)O (configuration not stated) [heptaminol hydrochloride]	30.8
CC(C)OC(=O)C(C)(C)Oc1ccc(C(=O)c2ccc(Cl)cc2)cc1 [fenofibrate]	13.4
Cc1cc2c(s1)Nc1ccccc1N=C2N1CCN(C)CC1 [olanzapine]	7.54
CCOC(=S)SSC(=S)OCC [dixanthogen]	5.04
CC=CC1=C(C(=O)O)N2C(=O)[C@@H](NC(=O)[C@H](N)c3ccc(O)cc3)[C@H]2SC1 [cefprozil]	< 0
NC(=O)CC[C@H](N)C(=O)O [L-Glutamine]	18
O=C1c2ccccc2C(=O)C1c1ccc(Br)cc1 [bromindione]	10.5
CCCCC[C@H](O)/C=C/[C@H]1[C@H](O)CC(=O)[C@@H]1C/C=C\CCCC(=O)O [Dinoprostone]	25.7
O=C(CCNNC(=O)c1ccncc1)NCc1ccccc1 [Nialamide]	< 0
Cc1nc2ccccn2c(=O)c1CCN1CCC(C(=O)c2ccc(F)cc2)CC1 [Pirenperone]	30.1
CC(C)(C)CC(C)(C)c1cc(Cc2cc(C(C)(C)CC(C)(C)C)cc(-n3nc4ccccc4n3)c2O)c(O)c(-n2nc3ccccc3n2)c1 [bisoctrizole]	17.8
NC(=O)c1cnccn1 [pyrazinamide]	9.85
CC(=O)O[C@H]1C(=O)[C@@]2(C)[C@H]([C@H](OC(=O)c3ccccc3)[C@]3(O)C[C@H](OC(=O)[C@H](O)[C@@H](NC(=O)c4ccccc4)c4ccccc4)C(C)=C1C3(C)C)[C@]1(OC(C)=O)CO[C@@H]1C[C@@H]2O [Taxol]	3.56
COc1cccc2c1C(=O)c1c(O)c3c(c(O)c1C2=O)C[C@@](O)(C(=O)CO)C[C@@H]3O[C@H]1C[C@H](N)[C@@H](O)[C@H](C)O1 [epirubicin hydrochloride]	23.7
C/C=C/c1ccc(OC)cc1 [anethole]	34
O[C@H]1[C@H](O)[C@@H](O)[C@H](O)[C@@H](O)[C@H]1O [inositol]	35.3
CCCN(CCC)CCc1cccc2c1CC(=O)N2 [ropinirole hydrochloride]	16.5

Structure (SMILES)	motility inhibition on day 3 [%]
Nc1cc(N2CCCCC2)nc(N)[n+]1[O-] [Minoxidil]	12.5
C[C@]12CCC(=O)C=C1[C@@H]1C[C@@H]1[C@H]1[C@@H]3[C@@H]4C[C@@H]4[C@@]4(CCC(=O)O4)[C@@]3(C)CC[C@@H]12 [drospirenone]	2.3
CC1=C(/C=C/C(C)=C/C=C/C(C)=C/CO)C(C)(C)CCC1 [retinol]	15.3
C/C=C(/C(=C/C)c1ccc(O)cc1)c1ccc(O)cc1 [dienestrol]	8.74
Cc1ncc([N+](=O)[O-])n1CC(C)O (configuration not stated) [secnidazole]	4.33
O=C(O)c1ccccc1OP(=O)(O)O [fosfosal]	18.5
CCC(NC(C)C)C(O)c1ccc(O)c2[nH]c(=O)ccc12 (configuration not stated) [Procaterol HCl hemihydrate]	9.29
O=C(O)c1cc(=O)[nH]c(=O)[nH]1 [orotic acid]	9
O=c1n(CCCN2CCN(c3cccc(Cl)c3)CC2)nc2ccccn12 [Trazodone hydrochloride]	5.52
CC(=O)NCCCCCC(=O)O [acexamic acid]	< 0
CC1(C)S[C@@H]2[C@H](NC(=O)[C@H](N)c3ccccc3)C(=O)N2[C@H]1C(=O)O [ampicillin sodium]	20.9
C=C[C@H]1CN2CC[C@H]1C[C@H]2[C@H](O)c1ccnc2ccc(OC)cc12 [quinine sulfate]	22.5
c1ccc2c(CC3=NCCN3)cccc2c1 [naphazoline hydrochloride]	14.1
CC(=O)OCC(=O)[C@@]12OC(C)(C)O[C@@H]1C[C@H]1[C@@H]3C[C@H](F)C4=CC(=O)C=C[C@]4(C)[C@@]3(F)[C@@H](O)C[C@@]12C [fluocinonide]	8.83
CCN(CC)CC(=O)Nc1c(C)cccc1C [Lidocaine hydrochloride]	28.9
CC(=O)CC(c1ccccc1)c1c(O)c2ccccc2oc1=O (configuration not stated) [warfarin]	3.32
O=C1NS(=O)(=O)c2ccccc21 [saccharin]	57.1
CO[C@@H]1[C@@H](O[C@@H]2O[C@H](C)[C@@H](O[C@H]3C[C@@](C)(O)[C@@H](OC(=O)CC(C)C)[C@H](C)O3)[C@H](N(C)C)[C@H]2O)[C@@H](CC=O)C[C@@H](C)[C@@H](O)/C=C/C=C/C[C@@H](C)OC(=O)C[C@H]1OC(C)=O [Josamycin]	< 0
O=c1oc2c(O)c(O)cc3c(=O)oc4c(O)c(O)cc1c4c23 [ellagic acid]	2.42
COc1cccc2c1C(=O)c1c(O)c3c(c(O)c1C2=O)C[C@@](O)(C(C)=O)C[C@@H]3O[C@H]1C[C@H](N)[C@H](O)[C@H](C)O1 [daunorubicin]	19.3
CC(=O)NS(=O)(=O)c1ccc(N)cc1 [sulfacetamide]	< 0
Cc1cn([C@H]2C=C[C@@H](CO)O2)c(=O)[nH]c1=O [stavudine]	< 0
OCc1ccccc1O[C@@H]1O[C@H](CO)[C@@H](O)[C@H](O)[C@H]1O [salicin]	< 0
C=CC1=C(C(=O)O)N2C(=O)[C@@H](NC(=O)/C(=N\O)c3csc(N)n3)[C@H]2SC1 [cefdinir]	27.8
CN1C(CCl)Nc2cc(Cl)c(S(N)(=O)=O)cc2S1(=O)=O (configuration not stated) [methyclothiazide]	6.75
NC(=O)CCCCC1CCSS1 (configuration not stated) [lipoamide]	< 0

Structure (SMILES)	motility inhibition on day 3 [%]
C=C(C)[C@H]1CC=C(C)CC1 [d-limonene]	30
NS(=O)(=O)c1cc2c(cc1C(F)(F)F)NCNS2(=O)=O [hydroflumethiazide]	62.5
CC(O)Cn1cnc2c1c(=O)n(C)c(=O)n2C (configuration not stated) [proxyphylline]	< 0
CCC1(C)OC(=O)N(C)C1=O (configuration not stated) [paramethadione]	7.17
N[C@@H](Cc1c[nH]c2ccccc12)C(=O)O [tryptophan]	< 0
O=C(OOC(=O)c1ccccc1)c1ccccc1 [benzoyl peroxide]	30.8
Cc1c(NC(=O)c2cccnc2)c(=O)n(-c2ccccc2)n1C [nifenazone]	49.6
CS(=O)(=O)OCCCCOS(C)(=O)=O [busulfan]	23.7
CC[C@@H]1C(=O)OC[C@@H]1Cc1cncn1C [(+)-Pilocarpine hydrochloride]	< 0
CN1C(=O)CC[C@H]1c1cccnc1 [cotinine]	< 0
CC(=O)N[C@H]1[C@H]([C@H](O)[C@H](O)CO)OC(O)(C(=O)O)C[C@@H]1O (mixture of isomers) [n-acetylneuramic acid]	12.1
O=C(CCCN1CCN(c2ccccn2)CC1)c1ccc(F)cc1 [azaperone]	5.34
C[C@H](CCC(=O)O)[C@H]1CC[C@H]2[C@@H]3[C@@H](O)C[C@@H]4C[C@H](O)CC[C@]4(C)[C@H]3CC[C@]12C [ursodiol]	17.6
C[C@@H](O)[C@@H]1NC(=O)[C@H](CCCCN)NC(=O)[C@@H](Cc2c[nH]c3ccccc23)NC(=O)[C@H](Cc2ccccc2)NC(=O)[C@@H](NC(=O)[C@H](N)Cc2ccccc2)CSSC[C@@H](C(=O)N[C@H](CO)[C@@H](C)O)NC1=O [Octreotide]	2.15
CC1CC(OC(=O)c2ccccc2O)CC(C)(C)C1 (configuration not stated) [homosalate]	1.62
Nc1c2ccccc2nc2ccccc12 [aminacrine]	0.654
CN1CCC(=C2c3ccccc3Sc3ccccc32)CC1 [pimethixene maleate]	5.83
C[C@@H]1C[C@H]2[C@@H]3CCC4=CC(=O)C=C[C@]4(C)[C@@]3(F)[C@@H](O)C[C@]2(C)[C@@]1(O)C(=O)COP(=O)(O)O [dexamethasone sodium phosphate]	31.1
CCN(CC)CCNC(C(=O)OCCC(C)C)c1ccccc1 (configuration not stated) [camylofine dihydrochloride]	4.34
Cc1c(-c2cnccn2)ssc1=S [oltipraz]	0.764
C(=C\c1ccccc1)/CN1CCN(C(c2ccccc2)c2ccccc2)CC1 [cinnarazine]	18.4
O=C(O)c1ccccc1C(=O)Nc1ccc(S(=O)(=O)Nc2nccs2)cc1 [phthalylsulfathiazole]	9.55
C[N+](C)(C)CC(=O)O [betaine hydrochloride]	34.6
OCCN(CCO)c1nc(N2CCCCC2)c2nc(N(CCO)CCO)nc(N3CCCCC3)c2n1 [Dipyridamole]	< 0
CN1CCN(C(c2ccccc2)c2ccccc2)CC1 [cyclizine]	23.5

Grouped by structure: the entries above containing a CF3 group
Structure (SMILES)	motility inhibition on day 3 [%]
C[C@@H](O[C@H]1OCCN(Cc2n[nH]c(=O)[nH]2)[C@H]1c1ccc(F)cc1)c1cc(C(F)(F)F)cc(C(F)(F)F)c1 [Aprepitant]	5.35
Cc1cn(-c2cc(NC(=O)c3ccc(C)c(Nc4nccc(-c5cccnc5)n4)c3)cc(C(F)(F)F)c2)cn1 [nilotinib]	6.86
NS(=O)(=O)c1cc2c(cc1C(F)(F)F)NCNS2(=O)=O [hydroflumethiazide]	62.5
